Publication PMC9748336
No constants are given. Whether binding was seen depends on the method and setting. In cells and extracts the contact can be indirect. Some results given as binding are weak or reduced against the parent protein; the word gives no strength. For some of these results: Where a sequence is shown, tags or fusion partners need not be part of it.

Protein sequences, listed by entry. Tags and fused reporters are not part of them. Lines headed by an entry give the natural chain unless they say otherwise; changes in a name come on top. Chains listed by the source or under a name are the forms on record and can include a tag or linker.
UniProt Q16537: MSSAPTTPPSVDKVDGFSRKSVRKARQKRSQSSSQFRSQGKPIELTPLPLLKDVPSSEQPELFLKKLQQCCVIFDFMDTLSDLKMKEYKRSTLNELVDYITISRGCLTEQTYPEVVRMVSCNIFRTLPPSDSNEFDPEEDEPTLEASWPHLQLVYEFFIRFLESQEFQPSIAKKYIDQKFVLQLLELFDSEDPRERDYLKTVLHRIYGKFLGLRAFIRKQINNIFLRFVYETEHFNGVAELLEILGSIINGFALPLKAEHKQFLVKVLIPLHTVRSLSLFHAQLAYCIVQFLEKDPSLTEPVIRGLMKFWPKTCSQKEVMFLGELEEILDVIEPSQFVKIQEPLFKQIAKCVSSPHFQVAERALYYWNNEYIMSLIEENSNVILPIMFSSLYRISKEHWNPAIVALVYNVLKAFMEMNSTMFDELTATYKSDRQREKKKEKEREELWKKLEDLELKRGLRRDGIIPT
UniProt Q15172: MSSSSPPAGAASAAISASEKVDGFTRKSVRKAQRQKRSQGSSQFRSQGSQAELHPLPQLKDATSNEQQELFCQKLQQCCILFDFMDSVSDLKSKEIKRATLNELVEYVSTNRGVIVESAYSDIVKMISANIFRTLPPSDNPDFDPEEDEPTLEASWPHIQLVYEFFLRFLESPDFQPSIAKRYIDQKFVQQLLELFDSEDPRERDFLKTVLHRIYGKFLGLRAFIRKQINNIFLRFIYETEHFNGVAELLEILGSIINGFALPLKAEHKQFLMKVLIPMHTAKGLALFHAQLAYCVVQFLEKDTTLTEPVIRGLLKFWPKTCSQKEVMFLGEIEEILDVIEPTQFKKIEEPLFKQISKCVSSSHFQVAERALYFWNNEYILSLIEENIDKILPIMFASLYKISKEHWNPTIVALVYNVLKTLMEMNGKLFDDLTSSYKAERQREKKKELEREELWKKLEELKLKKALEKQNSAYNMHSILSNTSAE
UniProt Q15173: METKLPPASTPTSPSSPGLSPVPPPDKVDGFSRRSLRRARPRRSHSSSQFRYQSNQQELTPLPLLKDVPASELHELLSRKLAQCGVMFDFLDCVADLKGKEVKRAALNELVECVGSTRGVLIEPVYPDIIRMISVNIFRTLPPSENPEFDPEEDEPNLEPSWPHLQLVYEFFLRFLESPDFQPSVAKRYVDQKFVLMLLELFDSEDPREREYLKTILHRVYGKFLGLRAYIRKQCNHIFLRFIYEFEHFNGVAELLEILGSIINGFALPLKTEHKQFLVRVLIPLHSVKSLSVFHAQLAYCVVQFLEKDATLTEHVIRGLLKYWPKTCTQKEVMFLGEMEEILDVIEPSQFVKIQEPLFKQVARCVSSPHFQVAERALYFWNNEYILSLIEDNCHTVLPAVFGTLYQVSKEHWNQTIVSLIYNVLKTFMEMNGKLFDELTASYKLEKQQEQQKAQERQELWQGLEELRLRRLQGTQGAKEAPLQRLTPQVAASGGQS
UniProt P67775: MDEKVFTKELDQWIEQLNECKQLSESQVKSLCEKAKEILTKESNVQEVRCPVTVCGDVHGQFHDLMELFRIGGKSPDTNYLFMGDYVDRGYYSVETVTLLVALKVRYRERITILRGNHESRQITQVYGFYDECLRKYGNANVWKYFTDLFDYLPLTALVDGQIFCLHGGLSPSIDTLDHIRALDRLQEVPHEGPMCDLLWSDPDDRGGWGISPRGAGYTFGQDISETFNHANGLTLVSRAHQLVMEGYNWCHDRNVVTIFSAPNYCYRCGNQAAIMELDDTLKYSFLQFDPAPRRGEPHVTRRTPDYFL
HA-tagged PP2A catalytic Cα subunit p.Cys196Arg variant (P67775, form named): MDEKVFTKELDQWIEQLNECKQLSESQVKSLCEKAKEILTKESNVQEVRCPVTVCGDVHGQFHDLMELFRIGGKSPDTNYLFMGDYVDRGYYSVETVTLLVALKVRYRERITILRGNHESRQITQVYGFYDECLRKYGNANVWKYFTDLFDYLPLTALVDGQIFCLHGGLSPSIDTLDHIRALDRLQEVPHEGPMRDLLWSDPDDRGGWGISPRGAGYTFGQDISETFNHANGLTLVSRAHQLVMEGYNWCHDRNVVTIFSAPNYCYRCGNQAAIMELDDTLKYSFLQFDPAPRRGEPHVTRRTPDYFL

What was measured:
Test in all cases: co-IP; GFP pulldown: lysates of HEK293T cells co-expressing GFP-tagged B-type subunit and HA-Cα incubated 1 h at 4°C with GFP-trap-A beads in NENT100 buffer with 1 mg/ml BSA; washes with 300 and 150 mM NaCl; HA-Cα detected by anti-HA immunoblot, quantified against the anti-GFP signal, WT set at 100%; no phosphatase inhibitors for GFP-STRN3
[1] = target: T1, GFP-tagged PP2A regulatory B”’/STRN3 subunit (UniProt Q13033)
T1 sequence: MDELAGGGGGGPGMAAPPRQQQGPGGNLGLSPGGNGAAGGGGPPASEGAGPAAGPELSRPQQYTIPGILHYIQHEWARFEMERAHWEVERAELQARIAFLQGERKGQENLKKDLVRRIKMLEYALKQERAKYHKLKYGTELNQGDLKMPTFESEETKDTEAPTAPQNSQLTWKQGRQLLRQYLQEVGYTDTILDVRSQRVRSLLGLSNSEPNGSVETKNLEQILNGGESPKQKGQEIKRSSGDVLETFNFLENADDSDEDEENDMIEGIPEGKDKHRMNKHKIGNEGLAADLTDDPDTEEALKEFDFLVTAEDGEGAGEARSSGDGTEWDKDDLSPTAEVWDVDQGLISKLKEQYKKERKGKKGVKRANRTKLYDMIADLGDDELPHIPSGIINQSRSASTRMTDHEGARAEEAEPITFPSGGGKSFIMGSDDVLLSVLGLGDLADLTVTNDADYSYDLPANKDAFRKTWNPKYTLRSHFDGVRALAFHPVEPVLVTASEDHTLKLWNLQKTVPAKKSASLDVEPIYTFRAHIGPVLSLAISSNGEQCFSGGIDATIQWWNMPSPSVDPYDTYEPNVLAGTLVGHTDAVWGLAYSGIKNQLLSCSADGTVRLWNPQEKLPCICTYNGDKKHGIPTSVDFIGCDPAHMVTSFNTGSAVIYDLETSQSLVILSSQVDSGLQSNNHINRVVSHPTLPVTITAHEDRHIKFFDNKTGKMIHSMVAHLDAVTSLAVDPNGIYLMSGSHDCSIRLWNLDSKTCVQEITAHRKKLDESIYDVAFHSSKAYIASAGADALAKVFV

[2] = target: T2, GFP-tagged PP2A regulatory B”/PR72 subunit (UniProt Q06190)
T2 sequence: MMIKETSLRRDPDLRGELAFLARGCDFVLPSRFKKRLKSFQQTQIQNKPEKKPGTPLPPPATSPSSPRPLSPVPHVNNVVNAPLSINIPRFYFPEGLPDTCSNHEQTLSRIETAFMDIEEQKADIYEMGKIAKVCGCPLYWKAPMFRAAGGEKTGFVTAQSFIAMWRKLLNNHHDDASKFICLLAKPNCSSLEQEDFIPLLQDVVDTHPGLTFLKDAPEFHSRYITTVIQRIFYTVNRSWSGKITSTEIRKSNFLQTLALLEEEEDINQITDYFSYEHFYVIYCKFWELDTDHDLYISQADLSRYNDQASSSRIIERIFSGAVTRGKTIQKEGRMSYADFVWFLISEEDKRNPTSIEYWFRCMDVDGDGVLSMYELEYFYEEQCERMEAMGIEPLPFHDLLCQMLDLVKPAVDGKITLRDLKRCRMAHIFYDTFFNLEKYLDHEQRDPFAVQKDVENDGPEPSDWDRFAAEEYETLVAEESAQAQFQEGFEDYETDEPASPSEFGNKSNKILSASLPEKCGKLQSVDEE

[3] = target: T3, GFP-tagged PP2A regulatory B55α subunit (UniProt P63151)
T3 sequence: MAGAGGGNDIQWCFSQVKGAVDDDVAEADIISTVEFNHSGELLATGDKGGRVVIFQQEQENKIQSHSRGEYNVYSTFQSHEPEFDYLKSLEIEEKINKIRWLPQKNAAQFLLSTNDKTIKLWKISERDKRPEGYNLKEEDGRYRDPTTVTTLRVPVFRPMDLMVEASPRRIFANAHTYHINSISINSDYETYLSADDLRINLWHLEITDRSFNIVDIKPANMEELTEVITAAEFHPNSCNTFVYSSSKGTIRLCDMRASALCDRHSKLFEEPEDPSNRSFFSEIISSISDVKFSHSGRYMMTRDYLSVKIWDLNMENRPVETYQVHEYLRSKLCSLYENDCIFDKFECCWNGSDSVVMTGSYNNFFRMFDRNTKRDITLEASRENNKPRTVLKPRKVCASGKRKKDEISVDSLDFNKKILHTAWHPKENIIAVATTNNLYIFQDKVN

[4] = target: GFP-tagged PP2A regulatory B56ε subunit (UniProt Q16537)
[5] = target: GFP-tagged PP2A regulatory B56α subunit (UniProt Q15172)
[6] = target: GFP-tagged PP2A regulatory B56β subunit (UniProt Q15173)

Row | binding [1] | binding [2] | binding [3] | binding [4] | binding [5] | binding [6] | Substance
1 | binds | – | – | – | – | – | HA-tagged PP2A catalytic Cα subunit p.Cys196Arg variant (from UniProt P67775 1-309) (enzyme)
2 | binds | binds | binds | binds | binds | binds | HA-tagged wild-type PP2A catalytic Cα subunit (from UniProt P67775 1-309) (enzyme)
